# Source: PubChem BioAssay AID504467 (National Center for Advancing Translational Sciences (NCATS), 2011)
# Screen size: about 330,000 compounds; about 7,700 (2.3%) were called active. Inconclusive means that the source gave no clear call. Such entries were picked first, then a sample of the others. The call rests on the fitted dose curve; in most records, active means well fitted inhibition curve with a large enough effect; inconclusive means small, poorly fitted or top-dose-only effect, or effect the other way; inactive means flat fitted curve, though single readings scatter. Potencies of inconclusive entries are doubtful fits and often do not repeat.
# Experiment: qHTS screen for small molecules that inhibit ELG1-dependent DNA repair in human embryonic kidney (HEK293T) cells expressing luciferase-tagged ELG1; further: nearly all actives have a fitted effect of over 55% in size
# Settings: HEK293T ELG1-luciferase reporter, luminescence, 16 h, DNA damage induced by 5-fluorouridine; activity change, negative = inhibition: at 46.1 µM (top of the series)
# Procedure, shortened: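 Quantitative HTS, concentration-response format. 2,000 cells/well co-treated with 5-fluorouridine and compound, 16 hr in 5% CO2 at 37 °C; ONE-Glo luminescence read after 30 min.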
# On the % scale 0 is the no-effect control and ±100 the full control effect; potency means the concentration at half of the fitted maximal effect.
SMILES,Potency,"activity change, negative = inhibition"
CCN1C(=O)[C@@H]2[C@@H](c3ccc(-c4ccc(F)cc4)c(OC)c3)N3CCCC[C@@]3(C(=O)OC)[C@@H]2C1=O,"inconclusive: 14.1 µM [inhibitor, partial curve, poor fit]",
CC(C)(C)c1ccc(OCCC(=O)OCC(=O)NC2CC2)cc1,"inconclusive: 20.6 µM [activator, partial curve, poor fit]",
COc1ccccc1CCC(=O)N(CCC1=CCCCC1)c1c(N)n(Cc2ccccc2)c(=O)[nH]c1=O,,inactive: 2.02%
COC(=O)c1sc(NC(=O)CSc2nnnn2C)nc1C,"inconclusive: 20.6 µM [activator, partial curve]",
COc1ccc(CCNS(=O)(=O)c2ccc(Cl)cc2)cc1OC,,inactive: -1.32%
NS(=O)(=O)c1ccc(N2C(=O)C(=O)/C(=C(/O)c3ccccc3)C2c2ccc(Cl)cc2)cc1 (stereo not given),"inconclusive: 20.6 µM [activator, partial curve, poor fit]",
COC(=O)/C=C1/SC(=NC(=O)c2ccccc2)NC1=O,,inactive: 5.8%
Oc1ccccc1CNn1cnnc1,,inactive: 13.8%
CCOc1ccc(C(C)NC(=S)NC2CCCCC2)cc1 (stereo not given),"inconclusive: 20.6 µM [inhibitor, partial curve]",
COc1cc(C(=O)NCC(c2ccc(F)cc2)N2CCOCC2)ccc1OCc1ccccc1Cl (stereo not given),"inconclusive: 35.5 µM [inhibitor, single point]",
COc1ccc(C2c3ccc(O)cc3Oc3ncn4nc(-c5ccccn5)nc4c32)cc1 (stereo not given),"inconclusive: 29.1 µM [activator, single point]",
O=C(NC1CCCC1)C(c1ccsc1)N(C(=O)Cc1cccs1)c1ccc(F)cc1 (stereo not given),,inactive: 6.55%
Cc1ccc(S(=O)(=O)Nc2ccccc2CNc2cccc(C)n2)cc1,,inactive: 1.47%
CCC(=O)N1c2ccc(S(=O)(=O)CCC(=O)Nc3ccc(OC)cc3OC)cc2CC1C (stereo not given),,inactive: 5.63%
Cc1ccc(C(=O)Nc2nc(=O)n(C(=O)c3ccccc3C)s2)cc1,,inactive: 9.48%
CCOC(=O)c1nn(-c2ccc(F)cc2)c2nc(Nc3ccccc3)cc(=O)n12,"inconclusive: 18.4 µM [inhibitor, single point]",
O=C(/C=C/c1ccc([N+](=O)[O-])cc1)NCc1cccnc1,,inactive: 9.3%
CC(=O)NC1=NN(C(C)=O)C(C)(c2ccc(Br)cc2)S1 (stereo not given),,inactive: -6.48%
O=c1c(-c2ccc(Br)cc2)coc2c(CN3CCOCC3)c(O)ccc12,"inconclusive: 10.3 µM [activator, partial curve]",
c1ccc(NNC2=NCCCCC2)cc1,"inconclusive: 9.2 µM [inhibitor, partial curve]",
CCOc1ccc(C(=O)NC(=S)NCc2cccnc2)cc1[N+](=O)[O-],"inconclusive: 25.9 µM [inhibitor, single point]",
Cc1ccnc(NC(=S)NC(=O)/C=C/c2ccc(Cl)cc2)c1,"inconclusive: 14.6 µM [activator, partial curve, poor fit]",
COCCCNC(=O)c1cccc2c(=O)c(C)c(-c3ccccc3)oc12,"inconclusive: 29.1 µM [inhibitor, single point]",
COc1ccc(N(C)C(=O)CCC(=O)Nc2ccc3nc(N4CCOCC4)cc(C)c3c2)c(OC)c1,"inconclusive: 23.1 µM [inhibitor, single point]",

# 2 successive compounds from above, quoted:
SMILES,Potency,"activity change, negative = inhibition"
O=c1c(-c2ccc(Br)cc2)coc2c(CN3CCOCC3)c(O)ccc12,"inconclusive: 10.3 µM [activator, partial curve]",
c1ccc(NNC2=NCCCCC2)cc1,"inconclusive: 9.2 µM [inhibitor, partial curve]",

# (next part)

SMILES,Potency,"activity change, negative = inhibition"
COc1ccc(CCN(Cc2nc(-c3ccccc3)no2)Cc2nc(-c3ccccc3)no2)cc1OC,"inconclusive: 18.4 µM [inhibitor, single point]",
O=C(CN1C(=O)CSc2ccc(S(=O)(=O)N3CCOCC3)cc21)NCc1ccc(Cl)cc1,,inactive: -1.7%
O=C(Oc1ccccc1)c1ccc(NC(=O)c2ccco2)cc1,"inconclusive: 18.4 µM [activator, single point]",
Cc1ccc(CS(=O)(=O)c2ncc(Cl)c(C(=O)Nc3nnc(C(C)C)s3)n2)cc1,"inconclusive: 29.1 µM [inhibitor, single point]",
CCOC(=O)c1cnc2c(-c3ccccc3)c(-c3ccccc3)nn2c1C,"inconclusive: 18.3 µM [inhibitor, single point]",
CN(C)CCNC(=O)c1ccc(Cl)s1,"inconclusive: 32.6 µM [inhibitor, partial curve, poor fit]",
COC(=O)c1ccccc1S(=O)(=O)N(Cc1ccco1)Cc1cc2cc(OC)ccc2[nH]c1=O,active: 23.1 µM,
COc1cccc(NC(=O)CN(C)C(=O)c2cccc(S(=O)(=O)N3CCN(c4ccc(F)cc4)CC3)c2)c1,"inconclusive: 8.2 µM [inhibitor, partial curve, poor fit]",
O=C(Cn1nnc(-c2ccccc2)n1)N/N=C/c1cccc([N+](=O)[O-])c1O,,inactive: -17.7%
Nc1ccc2nn(-c3cc([N+](=O)[O-])ccc3O)nc2c1,,inactive: 11.4%
COc1ccc([C@@H]2C[C@H](c3ccccc3)Oc3cc(OC)c(OC)c(OC)c32)cc1,"inconclusive: 1.03 µM [activator, full curve, poor fit]",
Fc1ccccc1NC(=S)Nc1cccc2cnccc12,"inconclusive: 18.3 µM [inhibitor, partial curve]",
Cc1ccccc1-c1nc(CS(=O)(=O)CC(=O)NCCCN2CC(C)CC(C)C2)c(C)o1 (stereo not given),,inactive: 10.2%
COc1cc(-c2nn3c(-c4cccc(C)c4)nnc3s2)cc(OC)c1OC,"inconclusive: 18.4 µM [inhibitor, partial curve]",
Cn1cnc([N+](=O)[O-])c1S(=O)(=O)c1ccc(Cl)cc1,"inconclusive: 29.1 µM [activator, single point]",
c1ccc(-c2ccccc2-c2nc(-c3cccnc3)no2)cc1,,inactive: -7.72%
CN(C1CCCCC1)S(=O)(=O)c1ccc(NC(=O)c2ccco2)cc1,"inconclusive: 29.1 µM [inhibitor, single point]",
CC(C)CN(C(=O)COC(=O)c1c2c(nc3ccccc13)CCC2)c1c(N)n(Cc2ccccc2)c(=O)[nH]c1=O,"inconclusive: 29.1 µM [inhibitor, single point]",
CC(C)(C)OC(=O)n1cc(C(=O)c2ccccc2O)cn1,,inactive: 5.23%
O=C(CS(=O)(=O)c1ccccc1)NCc1ccc(Cl)cc1,,inactive: 27.1%
C=CCn1c(O)c(N=NC(=O)c2ccccc2NS(=O)(=O)c2cccs2)c2ccccc21,,inactive: -3.13%
CCN(CC)S(=O)(=O)c1ccc2[nH]cc(C(=O)NCCC3=CCCCC3)c(=O)c2c1,active: 13 µM,
CCOC(=O)c1ccc(-c2ccc3[nH]c4ccccc4c(=O)c3c2)cc1F,"inconclusive: 2.06 µM [activator, partial curve]",
CC(C)NC(=O)c1ccc(COCC(F)(F)C(F)F)cc1,"inconclusive: 25.9 µM [activator, single point]",

SMILES,Potency,"activity change, negative = inhibition"
CC(C)(C)c1cc(NC(=O)c2ccc(OC3CCCC3)cc2)no1,"inconclusive: 32.6 µM [inhibitor, partial curve, poor fit]",
Cc1cccc(Nc2nc(N)nc(CN3CCN(c4ccccc4)CC3)n2)c1,"inconclusive: 22.4 µM [inhibitor, single point]",
COc1ccc(C(=O)n2cc(C(C)=O)c3ccccc32)cc1,,inactive: -25.6%
Cc1cc(C(=O)Nc2cccc(NC(=O)c3ccco3)c2)ccc1[N+](=O)[O-],"inconclusive: 14.6 µM [inhibitor, partial curve]",
Cc1nn(-c2nc3ccccc3s2)c(N)c1Sc1ccc(F)cc1,"inconclusive: 7.31 µM [activator, partial curve]",
O=C(COC(=O)c1ncc(Cl)c(Cl)c1Cl)NC1CCCCCC1,,inactive: 26.8%
Cc1cc(C(=O)OCC(=O)NCCCN2CCCC2=O)c2ccccc2n1,,inactive: -1.68%
COC(=O)c1ccc(CNC(=O)c2ccc(S(=O)(=O)N(C)c3ccccc3OC)cc2)cc1,"inconclusive: 22.4 µM [inhibitor, single point]",
CCOc1ccc(Cn2c3ccc(OC)cc3c3nc4ccccc4nc32)cc1,,inactive: 4.04%
C=CCNc1ncnc2c1[nH]c1ccc(C)cc12,"inconclusive: 2.59 µM [activator, partial curve]",
CCN(CC)c1ccc(/C=C/C(=O)c2cccnc2)cc1,active: 23.1 µM,
Clc1ccccc1Cn1nnc(-c2ccccc2)n1,"inconclusive: 9.2 µM [activator, partial curve]",
COc1ccc(C2NC(=O)NC(C)=C2[N+](=O)[O-])cc1 (stereo not given),,inactive: 4.27%
C=CCn1c(C)cc(C(=O)COC(=O)C2CC(=O)N(CCc3ccc(OC)c(OC)c3)C2)c1C (stereo not given),"inconclusive: 32.6 µM [activator, single point]",
COc1cc2ccccc2cc1C(=O)Nc1ccc(S(=O)(=O)Nc2cc(C)on2)cc1,"inconclusive: 16.4 µM [activator, single point]",
CCOC(=O)c1ccc(NC(=O)c2cc3c(s2)CCC3)cc1,,inactive: 1.14%
CCN(C1CCCCC1)S(=O)(=O)c1ccc(S(=O)(=O)NCCc2ccncc2)cc1,"inconclusive: 29.1 µM [inhibitor, single point]",
COc1cc(OC)c2c(-c3cccc(-c4ccc(OC(F)(F)F)cc4)c3)cc(=O)oc2c1,,inactive: -16.9%
COCc1nnc(NC(=O)C2CCN(C(=O)c3ccco3)CC2)s1,,inactive: 9.1%
O=C(O)CNS(=O)(=O)c1ccc2c(c1)Cc1cc(S(=O)(=O)NCC(=O)O)ccc1-2,,inactive: -7.9%
CC(=O)c1ccc(S(=O)(=O)N(C)CCCC(=O)NCc2ccc3c(c2)OCO3)cc1,"inconclusive: 6.51 µM [activator, single point]",
CCn1nc(C)c(NC(=O)CCSc2nc(-c3ccco3)cc(C(F)(F)F)n2)c1C,"inconclusive: 35.5 µM [inhibitor, single point]",
